Results are given in words; binding and its absence hold for the method and conditions named. Some results given as binding are weak or reduced against the parent protein; the word gives no strength.
T1: Angiopoietin-2 (Ang2) (human, UniProt O15123 19-496, biotin label in Examples 22-24)
T1 construct: also called rhAng2; recombinant Ang2
T1 sequence (looked up): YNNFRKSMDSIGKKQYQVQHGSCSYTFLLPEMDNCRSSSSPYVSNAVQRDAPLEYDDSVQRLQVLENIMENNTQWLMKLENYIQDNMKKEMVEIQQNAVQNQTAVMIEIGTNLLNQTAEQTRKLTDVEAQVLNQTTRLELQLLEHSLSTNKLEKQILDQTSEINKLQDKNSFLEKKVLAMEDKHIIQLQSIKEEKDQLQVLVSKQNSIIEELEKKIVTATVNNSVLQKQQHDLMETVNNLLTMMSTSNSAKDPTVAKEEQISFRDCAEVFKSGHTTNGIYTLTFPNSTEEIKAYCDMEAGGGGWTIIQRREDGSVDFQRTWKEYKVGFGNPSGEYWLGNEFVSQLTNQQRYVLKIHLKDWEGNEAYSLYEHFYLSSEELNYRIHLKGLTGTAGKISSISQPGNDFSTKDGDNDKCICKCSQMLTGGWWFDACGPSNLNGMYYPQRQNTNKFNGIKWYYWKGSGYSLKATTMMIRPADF

The chains behind the UniProt entries cited, without tags or fusion partners. Residues count along the entry.
UniProt P05231, residues 30-212: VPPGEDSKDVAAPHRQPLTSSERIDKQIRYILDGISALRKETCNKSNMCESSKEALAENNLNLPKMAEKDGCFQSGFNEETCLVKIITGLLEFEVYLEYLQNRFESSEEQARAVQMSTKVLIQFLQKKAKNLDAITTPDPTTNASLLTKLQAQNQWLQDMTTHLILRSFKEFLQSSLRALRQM


Biological target: T1, Angiopoietin-2 (Ang2)
Experiment: Example 48, method not detailed

Row | Binder | binding
1 | SACDHPMNNKCG [ANG2 (MRD Ref. No., SEQ ID NO:136)] | binds
2 | SACGTFTHPQCG [ANG4] | binds
3 | SACHPMAPKSCG [ANG6] | binds
4 | SACGSYNHPMCG [ANG7] | binds
5 | SACGSYEHPMCG [ANG8] | binds
6 | SACQSSVCFFVRWRF [ANG10] | binds
7 | SACHPLIHNRCG [ANG12] | binds
8 | TCIFNFPACI [ANG18] | binds
9 | FCDEYTPAWCW [ANG19] | binds
10 | MCPDFGMFIYCI [ANG20] | binds
11 | QCQEVISACFGQAGQGGGSGGSQCWLMELVCL [ANG22] | binds
12 | KCPDMWPQCW [ANG23] | binds
13 | KCPDMWPMCW [ANG24] | binds
14 | QCEWIWVACDGQAGPAGFCYEHMLMCA [ANG25] | binds
15 | RCYEVWWDCA [ANG26] | binds
16 | ACIPDLFLCM [ANG27] | binds
17 | QCMWMWYQCR [ANG28] | binds
18 | KCPDMWPECW [ANG29] | binds
19 | PCQYWWVLCP [ANG30] | binds
20 | LCWNHWWMCE [ANG31] | binds
21 | FCHEYTPACCW [ANG32] | binds
22 | KCPDFWPECW [ANG33] | binds
23 | ECYHHWPECM [ANG34] | binds
24 | RCPDMWFPACW [ANG35] | binds
25 | ICIYWKDPWCY [ANG37] | binds

Biological target: IL6 (UniProt P05231)
Experiment: MRD identification, Example 48

Row | Binder | binding
26 | ILB877 (peptide) peptide: FNEDCMWDPLLMDCAYSPGQGSATGGSAAGGSYSFRCDVEPHQPGCFDLIQG | binds
27 | FNEDCMWDPLLMDCAYSPGQGSAAGGGSLMYMWEPRTQ [ILB878] | binds
28 | FNEDCMWDPLLMDCAYSPGQGSAAGGSLEASCAQSDQCFRQSQG [ILB879] | binds
29 | FNEDCMWDPLLMDCAYSPGQGSATGGSGSTASAAGGGSLCFSNWDEMKCF [ILB880] | binds
30 | FNEDCMWDPLLMDCAYSPGQGSATGGSAAGGGSICNWEEVDPHCA [ILB881] | binds
31 | FNEDCMWDPLLMDCAYSPGQGSAAGGGSPWLDPQWDIW [ILB882] | binds
32 | FNEDCMWDPLLMDCAYSPAGGSRNSWICMEWHCSDLTR [ILB883] | binds
33 | FNEDCMWDPLLMDCAYSPGQGSATGGSAAGGGSWGYQQSWVQQ [ILB884] | binds
34 | FNEDCMWDPLLMDCAYSPGQGSATGGSAAGGSLTVSNCQEEICMQDEYQG [ILB885] | binds
35 | FNEDCMWDPLLMDCAYSPGQGSAAGGGSQCKAYMPQCA [ILB886] | binds
36 | FNEDCMWDPLLMDCAYSPAGGGSSWQRHDGHQI [ILB887] | binds
37 | FNEDCMWDPLLMDCAYSPGQGSATGGSAAGGGSTREMLVHPRH [ILB888] | binds
38 | FNEDCMWDPLLMDCAYSPGQGSATGGSGSTASAAGGGSQQKERISPWP [ILB889] | binds
39 | FNEDCMWDPLLMDCAYSPGQGSAAGGGSFNINNIYVGN [ILB890] | binds
40 | FNEDCMWDPLLMDCAYSPGQGSAAGGGSVSSYNPWIIY [ILB891] | binds
41 | FNEDCMWDPLLMDCAYSPGQGSAAGGSMQTSCEFHEKYERHGCQQLSQG [ILB892] | binds

Row | Binder | binding
42 | FNEDCMWDPLLMDCAYSPGQGSAAGGGSNCLIAEWECE [ILB893] | binds
43 | FNEDCMWDPLLMDCAYSPGQGSAAGGGSWEVPRSLWGQGQAGPGGGSG [ILB894] | binds
44 | ILB895 (peptide) peptide: FNEDCMWDPLLMDCAYSPGQGSATGGSGSTASAAGGSMSLECESYGIGWCSLLH | binds
45 | FNEDCMWDPLLMDCAYSPGQGSAAGGSHISTCKLIMGAYAHCQTPSQG [ILB896] | binds
46 | FNEDCMWDPLLMDCAYSPGQGSAAGGGSLQQGRRHHMR [ILB897] | binds
47 | FNEDCMWDPLLMDCAYSPGQGSAAGGSNIDFQCYPFKCGVLFSQG [ILB898] | binds
48 | FNEDCMWDPLLMDCAYSPGQGSAAGGGSGCSSTPFAWSCS [ILB899] | binds
49 | FNEDCMWDPLLMDCAYSPGQGSATGGSGSTASAAGGGSPCQNQPSYQVCT [ILB900] | binds
50 | ILB901 (peptide) peptide: FNEDCMWDPLLMDCAYSPGQGSATGGSAAGGSLRQSCYPIPESEKCSFSNQG | binds
51 | FNEDCMWDPLLMDCAYSPGQGSAAGGGSFFHWPTKAKE [ILB902] | binds
52 | FNEDCMWDPLLMDCAYSPGQGSATGGSAAGGGSQCEFEQEECW [ILB903] | binds
53 | ILB904 (peptide) peptide: FNEDCMWDPLLMDCAYSPGQGSATGGSAAGGSGVTGCSGFPTTGTCSQHEQG | binds
54 | FNEDCMWDPLLMDCAYSPGQGSATGGSAAGGGSLDYHDIPRHA [ILB905] | binds
55 | FNEDCMWDPLLMDCAYSPGQGSATGGSAAGGGSSGWEHSSIVF [ILB906] | binds
56 | FNEDCMWDPLLMDCAYSPGQGSAAGGGSWWSPAYGWQN [ILB907] | binds
57 | FNEDCMWDPLLMDCAYSPGQGSAAGGGSQCALKSFTVPCN [ILB908] | binds

From patent publication US20160046678A1 (ZYNGENIA, published 2016)
